Measurements reported in article doi:10.1101/2021.06.15.448540.
Substitutions are numbered along the chain they refer to. These are yes or no findings as the source states them, for the method shown. Some entries that bind do so weakly or less than the wild type.

Key:
Assay in all cases: MST
[1] = target: T1, FhuCB with FhuB E304 mutated to Ala (Escherichia coli) (UniProt P07821+P06972)
T1 sequence (chain, His-tag labeled with the red-tris-NTA 2nd generation dye (in the MST)) 1: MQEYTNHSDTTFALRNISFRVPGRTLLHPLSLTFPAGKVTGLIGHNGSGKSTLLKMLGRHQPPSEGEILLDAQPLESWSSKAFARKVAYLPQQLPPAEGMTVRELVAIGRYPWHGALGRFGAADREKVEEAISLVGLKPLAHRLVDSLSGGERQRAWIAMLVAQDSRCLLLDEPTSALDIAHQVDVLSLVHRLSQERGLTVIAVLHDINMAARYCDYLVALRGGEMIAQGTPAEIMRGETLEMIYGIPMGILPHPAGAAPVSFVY
T1 sequence (chain, His-tag labeled with the red-tris-NTA 2nd generation dye (in the MST)) 2: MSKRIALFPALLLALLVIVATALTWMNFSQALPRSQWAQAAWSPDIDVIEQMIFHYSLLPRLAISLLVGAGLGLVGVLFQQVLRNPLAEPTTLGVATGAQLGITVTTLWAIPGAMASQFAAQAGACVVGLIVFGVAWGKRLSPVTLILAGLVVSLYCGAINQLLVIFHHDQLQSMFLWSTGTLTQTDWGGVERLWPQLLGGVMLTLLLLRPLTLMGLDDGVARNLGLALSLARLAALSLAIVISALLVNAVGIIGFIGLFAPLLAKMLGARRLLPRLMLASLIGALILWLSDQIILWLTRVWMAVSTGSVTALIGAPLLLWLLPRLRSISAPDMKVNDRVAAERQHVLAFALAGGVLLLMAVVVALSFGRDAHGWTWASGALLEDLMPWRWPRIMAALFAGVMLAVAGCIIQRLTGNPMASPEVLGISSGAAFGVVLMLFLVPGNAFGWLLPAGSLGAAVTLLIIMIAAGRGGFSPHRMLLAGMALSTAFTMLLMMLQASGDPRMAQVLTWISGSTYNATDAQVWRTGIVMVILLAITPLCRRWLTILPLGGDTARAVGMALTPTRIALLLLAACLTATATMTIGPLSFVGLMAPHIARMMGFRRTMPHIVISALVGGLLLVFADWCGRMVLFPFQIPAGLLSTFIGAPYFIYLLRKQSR

[2] = target: T2, FhuCB with FhuB S515 and Y517 mutated to Ala (Escherichia coli) (UniProt P07821+P06972)
T2 sequence (chain, His-tag labeled with the red-tris-NTA 2nd generation dye (in the MST)) 1: T1 sequence (chain, His-tag labeled with the red-tris-NTA 2nd generation dye (in the MST)) 1
T2 sequence (chain, His-tag labeled with the red-tris-NTA 2nd generation dye (in the MST)) 2: T1 sequence (chain, His-tag labeled with the red-tris-NTA 2nd generation dye (in the MST)) 2 with A304E, S515A, Y517A

[3] = target: T3, FhuCB with FhuB Q636 mutated to Ala (Escherichia coli) (UniProt P07821+P06972)
T3 sequence (chain, His-tag labeled with the red-tris-NTA 2nd generation dye (in the MST)) 1: T1 sequence (chain, His-tag labeled with the red-tris-NTA 2nd generation dye (in the MST)) 1
T3 sequence (chain, His-tag labeled with the red-tris-NTA 2nd generation dye (in the MST)) 2: T1 sequence (chain, His-tag labeled with the red-tris-NTA 2nd generation dye (in the MST)) 2 with A304E, Q636A

binding [1]: binds
binding [2]: binds
binding [3]: binds
B1: FhuD (separately expressed periplasmic substrate-binding protein) (protein, UniProt P07822 31-296)
chain: AAIDPNRIVALEWLPVELLLALGIVPYGVADTINYRLWVSEPPLPDSVIDVGLRTEPNLELLTEMKPSFMVWSAGYGPSPEMLARIAPGRGFNFSDGKQPLAMARKSLTEMADLLNLQSAAETHLAQYEDFIRSMKPRFVKRGARPLLLTTLIDPRHMLVFGPNSLFQEILDEYGIPNAWQGETNFWGSTAVSIDRLAAYKDVDVLCFDHDNSKDMDALMATPLWQAMPFVRAGRFQRVPAVWFYGATLSAMHFVRVLDNAIGGKA
